Record: PubChem BioAssay AID652272 (Drosophila RNAi Screening Center, 2013)

Test: 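Finding fly genes that regulate Hedgehog signal transduction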 (primary screen)
System: Drosophila clone 8 (Cl8) cells
Reagents: long dsRNA against Drosophila genes
Read-out: 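Plate reader light from a firefly reporter under a ptc promoter fragment that responds to Hedgehog, with Renilla light as transfection reference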
Direction: firefly Hh reporter signal: higher = more ptc reporter light; Renilla reference signal: higher = more Renilla control light
Call rule: 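Hit when the z-score averaged over two replicates is under -2 or over +3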
Calls: active = hit: reporter lowered or raised; inactive = not a hit
The screen tested about 21,000 reagents; this is an unselected part of those with a known target gene and a result. Of all reagents, 503 (2.4%) got an active call. 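Raw plate light values, not normalised; calls rest on replicate z-scores that were not deposited; hits include reporter decreases as well as increases.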 Reagents against one gene are numbered here. A plus sign joins genes that one reagent is predicted to hit. Reagent sequences are not shown. Not given: the amount of reagent, the time to read-out.

CG7443 | firefly Hh reporter signal, replicate 1 = 1.01e5; firefly Hh reporter signal, replicate 2 = 1.76e5; Renilla reference signal, replicate 1 = 4346; Renilla reference signal, replicate 2 = 4744; call = inactive
CG12498 | firefly Hh reporter signal, replicate 1 = 91209; firefly Hh reporter signal, replicate 2 = 1.48e5; Renilla reference signal, replicate 1 = 3269; Renilla reference signal, replicate 2 = 5957; call = inactive
CG2063 | firefly Hh reporter signal, replicate 1 = 84093; firefly Hh reporter signal, replicate 2 = 37440; Renilla reference signal, replicate 1 = 2812; Renilla reference signal, replicate 2 = 4304; call = inactive
CG31743 + CG34313 #1 | firefly Hh reporter signal, replicate 1 = 80693; firefly Hh reporter signal, replicate 2 = 62656; Renilla reference signal, replicate 1 = 2436; Renilla reference signal, replicate 2 = 1952; call = inactive
CG31743 + CG34313 #2 | firefly Hh reporter signal, replicate 1 = 1.54e5; firefly Hh reporter signal, replicate 2 = 53485; Renilla reference signal, replicate 1 = 3719; Renilla reference signal, replicate 2 = 4816; call = inactive
RpL6 (Ribosomal protein L6) | firefly Hh reporter signal, replicate 1 = 55251; firefly Hh reporter signal, replicate 2 = 1.06e5; Renilla reference signal, replicate 1 = 3996; Renilla reference signal, replicate 2 = 10560; call = active
CG15152 | firefly Hh reporter signal, replicate 1 = 1.11e5; firefly Hh reporter signal, replicate 2 = 59677; Renilla reference signal, replicate 1 = 2928; Renilla reference signal, replicate 2 = 5383; call = inactive
CG4709 | firefly Hh reporter signal, replicate 1 = 69456; firefly Hh reporter signal, replicate 2 = 54292; Renilla reference signal, replicate 1 = 3106; Renilla reference signal, replicate 2 = 2695; call = inactive
CG8299 | firefly Hh reporter signal, replicate 1 = 81372; firefly Hh reporter signal, replicate 2 = 52525; Renilla reference signal, replicate 1 = 1968; Renilla reference signal, replicate 2 = 3458; call = inactive
emb (embargoed) | firefly Hh reporter signal, replicate 1 = 1.19e5; firefly Hh reporter signal, replicate 2 = 91379; Renilla reference signal, replicate 1 = 3451; Renilla reference signal, replicate 2 = 2269; call = inactive
CG43740 #1 | firefly Hh reporter signal, replicate 1 = 75720; firefly Hh reporter signal, replicate 2 = 87894; Renilla reference signal, replicate 1 = 2656; Renilla reference signal, replicate 2 = 3335; call = inactive
CG43740 #2 | firefly Hh reporter signal, replicate 1 = 1.57e5; firefly Hh reporter signal, replicate 2 = 3.86e5; Renilla reference signal, replicate 1 = 5458; Renilla reference signal, replicate 2 = 14105; call = inactive
PpN58A (Protein phosphatase N at 58A) | firefly Hh reporter signal, replicate 1 = 68025; firefly Hh reporter signal, replicate 2 = 64002; Renilla reference signal, replicate 1 = 2987; Renilla reference signal, replicate 2 = 2604; call = inactive
dpr4 (defective proboscis extension response 4) #1 | firefly Hh reporter signal, replicate 1 = 1.17e5; firefly Hh reporter signal, replicate 2 = 1.39e5; Renilla reference signal, replicate 1 = 3996; Renilla reference signal, replicate 2 = 3483; call = inactive
dpr4 (defective proboscis extension response 4) #2 | firefly Hh reporter signal, replicate 1 = 1.40e5; firefly Hh reporter signal, replicate 2 = 1.42e5; Renilla reference signal, replicate 1 = 4864; Renilla reference signal, replicate 2 = 4624; call = inactive
CG13427 | firefly Hh reporter signal, replicate 1 = 1.03e5; firefly Hh reporter signal, replicate 2 = 43053; Renilla reference signal, replicate 1 = 2992; Renilla reference signal, replicate 2 = 507; call = inactive
CR33319 (pseudo) | firefly Hh reporter signal, replicate 1 = 1.82e5; firefly Hh reporter signal, replicate 2 = 3.62e5; Renilla reference signal, replicate 1 = 4340; Renilla reference signal, replicate 2 = 16753; call = inactive
fne (found in neurons) | firefly Hh reporter signal, replicate 1 = 49409; firefly Hh reporter signal, replicate 2 = 1.88e5; Renilla reference signal, replicate 1 = 1477; Renilla reference signal, replicate 2 = 6882; call = inactive
lute #1 | firefly Hh reporter signal, replicate 1 = 76823; firefly Hh reporter signal, replicate 2 = 91305; Renilla reference signal, replicate 1 = 1756; Renilla reference signal, replicate 2 = 2384; call = inactive
lute #2 | firefly Hh reporter signal, replicate 1 = 1.12e5; firefly Hh reporter signal, replicate 2 = 1.17e5; Renilla reference signal, replicate 1 = 5258; Renilla reference signal, replicate 2 = 4276; call = inactive
slou (slouch) | firefly Hh reporter signal, replicate 1 = 7.55e5; firefly Hh reporter signal, replicate 2 = 1.35e5; Renilla reference signal, replicate 1 = 43611; Renilla reference signal, replicate 2 = 2304; call = inactive

In a second layout: results already given
{"Gene":"RpL6 (Ribosomal protein L6)","reagent no.":1,"firefly Hh reporter signal, replicate 1":55251,"firefly Hh reporter signal, replicate 2":1.06e5,"Renilla reference signal, replicate 1":3996,"Renilla reference signal, replicate 2":10560,"call":"active"}
{"Gene":"CG15152","reagent no.":1,"firefly Hh reporter signal, replicate 1":1.11e5,"firefly Hh reporter signal, replicate 2":59677,"Renilla reference signal, replicate 1":2928,"Renilla reference signal, replicate 2":5383,"call":"inactive"}
